Consider one substance from article PMC4381594.

The chains behind the UniProt entries cited, without tags or fusion partners. Where a name states a change or a piece, a line headed by the entry shows the natural chain unless it says otherwise.
UniProt P17861: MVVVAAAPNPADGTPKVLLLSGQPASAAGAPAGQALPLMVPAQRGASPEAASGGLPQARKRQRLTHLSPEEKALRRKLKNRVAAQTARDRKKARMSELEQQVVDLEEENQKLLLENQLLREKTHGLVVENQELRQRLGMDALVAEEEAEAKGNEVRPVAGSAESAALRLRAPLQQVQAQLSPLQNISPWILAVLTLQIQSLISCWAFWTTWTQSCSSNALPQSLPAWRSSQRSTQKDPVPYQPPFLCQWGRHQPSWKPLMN
UniProt Q92830: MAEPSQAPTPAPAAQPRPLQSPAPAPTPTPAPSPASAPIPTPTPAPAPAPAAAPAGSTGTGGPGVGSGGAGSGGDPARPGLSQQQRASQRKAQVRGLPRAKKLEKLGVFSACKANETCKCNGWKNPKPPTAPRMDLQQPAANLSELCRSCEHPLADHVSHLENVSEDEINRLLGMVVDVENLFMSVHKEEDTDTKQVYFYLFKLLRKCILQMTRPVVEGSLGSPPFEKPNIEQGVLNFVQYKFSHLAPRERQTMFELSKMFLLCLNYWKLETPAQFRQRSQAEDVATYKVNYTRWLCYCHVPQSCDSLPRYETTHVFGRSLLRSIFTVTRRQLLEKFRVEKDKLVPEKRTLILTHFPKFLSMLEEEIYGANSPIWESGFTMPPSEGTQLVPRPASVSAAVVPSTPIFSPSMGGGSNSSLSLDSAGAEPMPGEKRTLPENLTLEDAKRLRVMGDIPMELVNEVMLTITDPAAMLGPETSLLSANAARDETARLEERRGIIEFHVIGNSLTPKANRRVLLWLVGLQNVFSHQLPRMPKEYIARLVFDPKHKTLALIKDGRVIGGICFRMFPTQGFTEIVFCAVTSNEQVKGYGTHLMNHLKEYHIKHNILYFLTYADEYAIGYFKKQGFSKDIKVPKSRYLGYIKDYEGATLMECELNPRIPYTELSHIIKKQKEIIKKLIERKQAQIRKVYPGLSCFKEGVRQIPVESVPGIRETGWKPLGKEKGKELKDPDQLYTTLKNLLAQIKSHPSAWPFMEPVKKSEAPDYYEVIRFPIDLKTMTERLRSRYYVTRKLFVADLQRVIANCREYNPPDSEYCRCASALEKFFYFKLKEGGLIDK

Results are given in words; binding and its absence hold for the method and conditions named. Binding seen in cells or lysates may run through a third protein. A result given as binding can be weak or reduced; the word gives no strength.

The experiment concerns the target XBP-1S-K16R mutant (HA-tagged) (human) (UniProt P17861). Briefly: co-IP; lysates of cells co-transfected with GCN5 and HA-tagged XBP-1S WT or K16R; IP with anti-HA antibody, immunoblot with anti-GCN5.

As to “general control nonderepressible 5 (GCN5) (from UniProt Q92830 1-837) (enzyme)”, the binding entry is on record as “binds”.
